Reference: the supplement of paper PMC10849652
The other results are listed elsewhere or left out.

Chains of the proteins cited; added tags and fusions are not shown. Lines headed by an entry give the natural chain unless they say otherwise; changes in a name come on top.
UniProt P10124: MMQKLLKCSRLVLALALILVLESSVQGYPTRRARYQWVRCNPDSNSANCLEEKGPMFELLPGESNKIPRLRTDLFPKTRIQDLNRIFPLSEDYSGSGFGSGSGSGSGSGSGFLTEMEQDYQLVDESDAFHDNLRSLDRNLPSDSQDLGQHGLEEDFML
UniProt Q13247: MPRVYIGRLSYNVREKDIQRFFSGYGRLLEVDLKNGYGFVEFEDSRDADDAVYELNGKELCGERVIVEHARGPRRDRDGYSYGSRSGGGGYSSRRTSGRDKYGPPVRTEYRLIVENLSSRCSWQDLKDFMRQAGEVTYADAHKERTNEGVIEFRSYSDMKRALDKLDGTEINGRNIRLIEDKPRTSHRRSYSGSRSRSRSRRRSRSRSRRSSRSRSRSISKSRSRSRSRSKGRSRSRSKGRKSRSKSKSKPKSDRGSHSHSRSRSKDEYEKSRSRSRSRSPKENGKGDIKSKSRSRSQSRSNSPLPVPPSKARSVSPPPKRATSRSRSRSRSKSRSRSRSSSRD
UniProt O15270: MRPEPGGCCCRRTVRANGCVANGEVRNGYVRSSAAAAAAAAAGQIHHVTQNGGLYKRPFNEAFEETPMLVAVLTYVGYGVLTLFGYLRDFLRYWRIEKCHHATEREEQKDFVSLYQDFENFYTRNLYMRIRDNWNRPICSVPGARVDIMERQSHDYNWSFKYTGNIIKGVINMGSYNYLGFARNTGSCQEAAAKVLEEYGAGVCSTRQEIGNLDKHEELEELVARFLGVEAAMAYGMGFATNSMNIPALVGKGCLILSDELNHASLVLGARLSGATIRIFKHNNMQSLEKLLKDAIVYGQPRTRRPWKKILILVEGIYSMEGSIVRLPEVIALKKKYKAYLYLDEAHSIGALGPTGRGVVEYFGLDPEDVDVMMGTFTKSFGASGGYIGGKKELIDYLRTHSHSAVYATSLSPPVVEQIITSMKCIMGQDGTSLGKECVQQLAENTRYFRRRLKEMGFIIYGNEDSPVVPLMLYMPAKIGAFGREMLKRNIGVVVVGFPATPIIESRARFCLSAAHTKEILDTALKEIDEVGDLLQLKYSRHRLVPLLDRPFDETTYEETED
UniProt Q08170: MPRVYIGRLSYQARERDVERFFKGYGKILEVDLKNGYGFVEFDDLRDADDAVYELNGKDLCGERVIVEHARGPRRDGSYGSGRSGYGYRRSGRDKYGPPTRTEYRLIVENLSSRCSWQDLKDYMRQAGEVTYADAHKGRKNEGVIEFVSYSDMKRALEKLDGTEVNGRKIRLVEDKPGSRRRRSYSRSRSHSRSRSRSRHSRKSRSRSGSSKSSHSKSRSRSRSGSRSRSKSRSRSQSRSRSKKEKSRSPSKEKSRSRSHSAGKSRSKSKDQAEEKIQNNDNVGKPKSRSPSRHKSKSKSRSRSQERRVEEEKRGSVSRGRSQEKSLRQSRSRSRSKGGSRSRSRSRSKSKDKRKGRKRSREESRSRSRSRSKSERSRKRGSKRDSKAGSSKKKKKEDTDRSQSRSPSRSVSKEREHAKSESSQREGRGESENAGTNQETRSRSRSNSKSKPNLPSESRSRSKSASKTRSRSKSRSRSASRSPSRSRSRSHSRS
UniProt Q96JI7: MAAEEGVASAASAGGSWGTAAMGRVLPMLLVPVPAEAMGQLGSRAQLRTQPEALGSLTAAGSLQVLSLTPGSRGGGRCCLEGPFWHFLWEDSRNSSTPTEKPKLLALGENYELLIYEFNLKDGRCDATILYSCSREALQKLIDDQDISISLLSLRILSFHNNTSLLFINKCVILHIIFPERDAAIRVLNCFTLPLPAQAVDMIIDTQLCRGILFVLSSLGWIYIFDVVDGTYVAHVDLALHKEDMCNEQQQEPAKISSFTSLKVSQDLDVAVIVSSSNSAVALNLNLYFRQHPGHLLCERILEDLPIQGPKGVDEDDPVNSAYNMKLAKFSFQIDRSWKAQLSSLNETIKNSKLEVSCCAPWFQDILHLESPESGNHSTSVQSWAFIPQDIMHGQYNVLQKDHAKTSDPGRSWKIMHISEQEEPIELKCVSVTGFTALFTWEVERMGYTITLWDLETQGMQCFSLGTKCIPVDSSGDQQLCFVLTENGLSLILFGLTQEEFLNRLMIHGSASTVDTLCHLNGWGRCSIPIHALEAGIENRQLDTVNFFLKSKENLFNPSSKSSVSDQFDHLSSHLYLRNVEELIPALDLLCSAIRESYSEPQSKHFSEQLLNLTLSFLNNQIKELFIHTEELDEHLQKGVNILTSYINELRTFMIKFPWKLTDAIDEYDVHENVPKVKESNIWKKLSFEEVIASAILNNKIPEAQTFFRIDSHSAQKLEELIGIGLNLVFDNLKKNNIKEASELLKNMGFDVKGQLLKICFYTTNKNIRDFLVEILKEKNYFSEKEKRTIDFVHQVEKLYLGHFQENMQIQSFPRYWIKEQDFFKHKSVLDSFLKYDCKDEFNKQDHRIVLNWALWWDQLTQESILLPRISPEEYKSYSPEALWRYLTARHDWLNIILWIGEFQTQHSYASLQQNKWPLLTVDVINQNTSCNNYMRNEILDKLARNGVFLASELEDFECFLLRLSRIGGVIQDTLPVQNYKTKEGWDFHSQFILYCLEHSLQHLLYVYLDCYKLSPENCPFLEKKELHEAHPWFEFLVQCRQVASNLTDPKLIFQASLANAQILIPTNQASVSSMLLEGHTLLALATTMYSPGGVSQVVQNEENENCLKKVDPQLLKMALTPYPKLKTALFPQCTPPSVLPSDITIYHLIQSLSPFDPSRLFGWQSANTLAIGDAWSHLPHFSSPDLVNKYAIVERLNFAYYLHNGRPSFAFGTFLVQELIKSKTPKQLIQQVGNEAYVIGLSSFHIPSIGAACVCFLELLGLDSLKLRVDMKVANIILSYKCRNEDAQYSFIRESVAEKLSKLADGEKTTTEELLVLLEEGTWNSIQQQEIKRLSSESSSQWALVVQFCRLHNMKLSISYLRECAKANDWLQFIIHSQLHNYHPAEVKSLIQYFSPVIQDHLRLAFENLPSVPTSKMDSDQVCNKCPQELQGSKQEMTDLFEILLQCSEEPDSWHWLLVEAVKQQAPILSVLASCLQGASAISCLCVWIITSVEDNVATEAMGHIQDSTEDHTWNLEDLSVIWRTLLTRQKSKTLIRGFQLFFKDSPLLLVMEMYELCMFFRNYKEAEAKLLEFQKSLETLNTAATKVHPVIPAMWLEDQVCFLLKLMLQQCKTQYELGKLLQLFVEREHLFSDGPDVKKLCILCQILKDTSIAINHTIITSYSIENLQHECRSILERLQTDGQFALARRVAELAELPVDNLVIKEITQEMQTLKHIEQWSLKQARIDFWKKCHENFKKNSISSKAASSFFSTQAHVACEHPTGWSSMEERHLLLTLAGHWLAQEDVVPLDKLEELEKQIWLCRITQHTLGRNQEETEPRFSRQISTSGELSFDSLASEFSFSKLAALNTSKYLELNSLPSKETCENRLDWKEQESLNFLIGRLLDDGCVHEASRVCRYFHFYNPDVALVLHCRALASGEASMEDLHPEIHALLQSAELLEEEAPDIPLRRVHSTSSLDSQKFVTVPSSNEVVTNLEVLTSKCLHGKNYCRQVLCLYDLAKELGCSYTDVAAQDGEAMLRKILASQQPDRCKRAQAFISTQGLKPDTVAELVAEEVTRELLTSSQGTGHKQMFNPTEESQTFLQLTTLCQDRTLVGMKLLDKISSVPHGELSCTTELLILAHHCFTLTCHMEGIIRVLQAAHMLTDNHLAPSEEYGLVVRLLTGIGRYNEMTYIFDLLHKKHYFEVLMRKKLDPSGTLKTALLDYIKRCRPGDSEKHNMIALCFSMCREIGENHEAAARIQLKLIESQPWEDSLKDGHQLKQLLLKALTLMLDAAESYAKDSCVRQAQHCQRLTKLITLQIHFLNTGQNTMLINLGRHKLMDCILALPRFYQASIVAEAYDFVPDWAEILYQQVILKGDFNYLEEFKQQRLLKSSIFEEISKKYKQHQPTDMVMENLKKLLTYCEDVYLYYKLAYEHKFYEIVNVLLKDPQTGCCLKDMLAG
UniProt Q9H254, whole entry, looked up: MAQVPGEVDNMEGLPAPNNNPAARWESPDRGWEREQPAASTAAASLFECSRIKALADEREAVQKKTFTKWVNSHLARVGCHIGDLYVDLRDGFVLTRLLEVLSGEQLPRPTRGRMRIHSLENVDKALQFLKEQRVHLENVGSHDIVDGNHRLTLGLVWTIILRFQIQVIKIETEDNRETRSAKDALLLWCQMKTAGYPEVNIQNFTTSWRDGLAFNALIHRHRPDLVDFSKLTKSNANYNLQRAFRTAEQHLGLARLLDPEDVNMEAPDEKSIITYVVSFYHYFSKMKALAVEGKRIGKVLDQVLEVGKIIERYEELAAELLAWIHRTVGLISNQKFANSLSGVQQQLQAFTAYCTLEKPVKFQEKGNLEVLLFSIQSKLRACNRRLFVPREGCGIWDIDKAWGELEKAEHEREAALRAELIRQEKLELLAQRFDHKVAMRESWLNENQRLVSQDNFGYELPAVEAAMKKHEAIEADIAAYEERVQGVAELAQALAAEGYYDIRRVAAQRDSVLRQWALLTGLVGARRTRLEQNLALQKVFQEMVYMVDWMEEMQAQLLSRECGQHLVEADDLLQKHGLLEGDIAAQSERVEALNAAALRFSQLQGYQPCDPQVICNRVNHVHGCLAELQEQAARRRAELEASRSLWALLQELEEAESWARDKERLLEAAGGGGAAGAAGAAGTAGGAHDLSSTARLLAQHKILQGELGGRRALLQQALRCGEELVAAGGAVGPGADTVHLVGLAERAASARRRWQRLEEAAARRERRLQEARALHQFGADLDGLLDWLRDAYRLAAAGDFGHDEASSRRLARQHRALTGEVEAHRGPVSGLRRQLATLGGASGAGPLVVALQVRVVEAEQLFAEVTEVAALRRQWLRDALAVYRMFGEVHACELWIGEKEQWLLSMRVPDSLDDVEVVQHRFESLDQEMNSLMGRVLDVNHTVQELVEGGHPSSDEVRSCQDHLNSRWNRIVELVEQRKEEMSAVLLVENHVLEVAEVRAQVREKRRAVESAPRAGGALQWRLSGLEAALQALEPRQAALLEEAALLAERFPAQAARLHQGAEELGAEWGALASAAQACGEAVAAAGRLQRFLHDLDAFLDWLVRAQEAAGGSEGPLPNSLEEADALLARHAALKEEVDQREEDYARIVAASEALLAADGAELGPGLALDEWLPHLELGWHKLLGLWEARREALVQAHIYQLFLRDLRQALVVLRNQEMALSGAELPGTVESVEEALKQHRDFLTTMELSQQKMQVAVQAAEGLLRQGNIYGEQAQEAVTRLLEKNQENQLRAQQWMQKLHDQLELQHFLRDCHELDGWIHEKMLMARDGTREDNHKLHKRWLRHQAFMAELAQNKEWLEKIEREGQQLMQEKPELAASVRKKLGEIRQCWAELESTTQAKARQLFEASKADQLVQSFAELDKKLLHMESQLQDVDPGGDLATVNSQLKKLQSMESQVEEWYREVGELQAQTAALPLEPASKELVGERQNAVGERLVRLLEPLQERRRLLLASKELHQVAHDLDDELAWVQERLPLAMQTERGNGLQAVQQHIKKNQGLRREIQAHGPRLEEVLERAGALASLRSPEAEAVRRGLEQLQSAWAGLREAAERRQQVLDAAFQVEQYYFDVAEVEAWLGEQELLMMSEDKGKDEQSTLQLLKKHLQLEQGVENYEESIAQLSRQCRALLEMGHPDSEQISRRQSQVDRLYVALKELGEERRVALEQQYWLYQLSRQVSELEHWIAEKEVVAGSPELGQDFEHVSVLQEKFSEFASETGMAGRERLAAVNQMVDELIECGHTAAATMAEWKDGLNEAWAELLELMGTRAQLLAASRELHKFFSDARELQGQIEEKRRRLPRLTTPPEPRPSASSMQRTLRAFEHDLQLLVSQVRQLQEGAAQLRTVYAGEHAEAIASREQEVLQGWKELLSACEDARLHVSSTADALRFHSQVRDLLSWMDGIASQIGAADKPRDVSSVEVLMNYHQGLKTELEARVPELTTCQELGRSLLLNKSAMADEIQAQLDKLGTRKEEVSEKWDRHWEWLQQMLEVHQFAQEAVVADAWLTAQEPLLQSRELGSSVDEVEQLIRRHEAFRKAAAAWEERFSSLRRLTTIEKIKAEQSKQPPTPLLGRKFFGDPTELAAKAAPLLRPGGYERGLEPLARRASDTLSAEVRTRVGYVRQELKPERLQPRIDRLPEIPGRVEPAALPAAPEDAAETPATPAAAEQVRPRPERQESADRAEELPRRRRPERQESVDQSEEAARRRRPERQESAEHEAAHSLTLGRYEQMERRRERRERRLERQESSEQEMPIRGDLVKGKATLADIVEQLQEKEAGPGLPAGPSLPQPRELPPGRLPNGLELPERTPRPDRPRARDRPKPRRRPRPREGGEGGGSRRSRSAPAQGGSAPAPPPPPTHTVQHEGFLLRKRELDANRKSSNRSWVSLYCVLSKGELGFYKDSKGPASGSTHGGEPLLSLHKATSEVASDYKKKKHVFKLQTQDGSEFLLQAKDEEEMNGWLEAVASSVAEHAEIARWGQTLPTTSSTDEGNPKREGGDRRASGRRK

Key:
Test in all cases: log2 fold change, soluble protein after heating vs DMSO (PISA); higher = thermal stabilisation; K562 lysate, 10 uM; active = over 0.2 and 3.5 SD of the protein, either way, in both replicates (recomputed)
[1] = compound: C1=CC=C(C=C1)[C@H](COC2=CC3=C(C=C2)NC(=O)N3)NC(=O)C4=CC=CN(C4=O)CC5=CC(=C(C=C5)F)F
Summary of the method: (§1)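 Pellets of K562 cells were dounce-homogenised in PBS pH 7.4 with 1 mM MgCl2, and the crude extract was held at 1 mg/mL protein for a 30 min treatment with 10 μM compound. Aliquots were heated for 3 min over 48°C-58°C and pooled before NP-40 was added to 0.5% at 4°C. The supernatant from 21,000xg for 90 min was quantified by TMTpro 16plex LC-MS/MS with channel sums equalised. Values are reported from duplicates as log-two fold change in thermal stability relative to solvent controls.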

[2] = compound: CC1=C(SC2=C1C(=N[C@H](C3=NN=C(N32)C)CC(=O)N)C4=CC=C(C=C4)Cl)C
Summary of the method: as §1

[3] = compound: CC1=C2C(=CC=C1)N=C(N(C2=O)C3=CC=CC=C3C)CN4C=NC5=C(N=CN=C54)N
Summary of the method: as §1

[4] = compound: Cc1sc2c(c1C)C(c1ccc(Cl)cc1)=N[C@@H](CC(=O)OC(C)(C)C)c1nnc(C)n1-2
Summary of the method: as §1

[5] = compound: c1ccc([C@@H]2C[C@H]2NC2CCNCC2)cc1
Summary of the method: as §1

Measured: log2 fold change

SRSF3 (UniProt P84103)
inactive: [1] 0.049 | [2] -0.047 | [3] -0.016 | [4] -0.015 | [5] 0.03

SPRED2 (UniProt Q7Z698)
inactive: [1] 0.116 | [2] 0.067

STAT5A (UniProt P42229)
inactive: [1] -0.012 | [2] 0.035 | [3] 0.008 | [4] 0.037 | [5] 0.025

ST3GAL2 (UniProt Q16842)
inactive: [1] -0.034 | [2] 0.093 | [3] -0.035 | [4] -0.077 | [5] -0.012

SPRYD7 (UniProt Q5W111)
inactive: [1] 0.005 | [2] 0.057 | [3] -0.001 | [4] 0.063 | [5] -0.006

STARD3NL (UniProt O95772)
inactive: [1] 0.005 | [2] 0.015 | [3] -0.016 | [4] -0.015 | [5] -0.004

SPRYD4 (UniProt Q8WW59)
inactive: [1] -0.027 | [2] 0.001 | [3] 0.022 | [4] 0.006 | [5] -0.03

STAU1 (UniProt O95793)
inactive: [1] -0.023 | [2] -0.021 | [3] 0.012 | [4] 0.059 | [5] 0.09

SPAST (UniProt Q9UBP0)
inactive: [1] -0.017 | [2] 0.005 | [3] 0.095 | [4] 0.006 | [5] 0.017

SPATS2 (UniProt Q86XZ4)
inactive: [1] 0.042 | [2] -0.035 | [3] 0.061 | [4] -0.014 | [5] -0.07

SRGN (UniProt P10124)
inactive: [1] 0.101 | [2] 0.14 | [3] 0.063 | [4] -0.03 | [5] -0.196

SRPRA (UniProt P08240)
inactive: [1] 0.016 | [2] 0.018 | [3] 0.051 | [4] 0.039 | [5] 0.071

STARD7 (UniProt Q9NQZ5)
inactive: [1] 0.033 | [2] 0.093 | [3] -0.037 | [4] -0.019 | [5] 0.051

ST3GAL4 isoform 4 (UniProt Q11206)
inactive: [1] -0.352 | [2] 0.197 | [3] -0.181 | [4] -0.081 | [5] 0.329

SPTBN2 (UniProt O15020)
inactive: [1] 0.003 | [2] 0.013 | [3] 0.015 | [4] 0.029 | [5] -0.032

SRP54 (UniProt P61011)
inactive: [1] 0.023 | [2] 0.001 | [3] 0.03 | [4] 0.06 | [5] 0.049

SRSF6 (UniProt Q13247)
inactive: [1] -0.003 | [2] -0.019 | [3] -0.011 | [4] -0.026 | [5] 0.084

SPTA1 (UniProt P02549)
inactive: [1] -0.031 | [2] -0.002 | [3] 0.025 | [4] 0.019 | [5] 0.042

SRM (UniProt P19623)
inactive: [1] -0.007 | [2] 0.029 | [3] 0.001 | [4] 0.009 | [5] 0.039

SSRP1 (UniProt Q08945)
inactive: [1] 0.009 | [2] 0.032 | [3] 0.004 | [4] 0.007 | [5] 0.021

SPC25 (UniProt Q9HBM1)
inactive: [1] 0.055 | [2] 0.044 | [3] 0.029 | [4] 0.022 | [5] 0.039

SPPL2B (UniProt Q8TCT7)
inactive: [1] -0.057 | [2] 0.014 | [3] 0.073 | [4] -0.072 | [5] 0.023

SPTLC2 (UniProt O15270)
inactive: [1] 0.011 | [2] -0.062 | [3] 0.015 | [4] -0.017 | [5] -0.028

SPTAN1 (UniProt Q13813)
inactive: [1] -0.001 | [2] -0.002 | [3] 0.006 | [4] -0.032 | [5] -0.008

SRRM1 (UniProt Q8IYB3)
inactive: [1] 0.035 | [2] 0.017 | [3] -0.034 | [4] 0.055 | [5] 0.045

STAM (UniProt Q92783)
inactive: [1] 0.028 | [2] 0.019 | [3] -0.002 | [4] 0.015 | [5] 0.016

SPG7 (UniProt Q9UQ90)
inactive: [1] -0.001 | [2] 0.004 | [3] 0.072 | [4] -0.042 | [5] 0.012

STAT1 (UniProt P42224)
inactive: [1] -0.013 | [2] -0.007 | [3] -0.007 | [4] -0.034 | [5] 0.013

SPRY4 (UniProt Q9C004)
inactive: [1] 0.051 | [2] -0.088 | [3] -0.001 | [4] -0.031 | [5] 0.05

SPATA33 isoform 2 (UniProt Q96N06)
inactive: [1] -0.025 | [2] 0.168 | [3] -0.133 | [4] -0.053 | [5] -0.167

SPEN (UniProt Q96T58)
inactive: [1] 0.097 | [2] 0.049 | [3] 0.031 | [4] -0.003 | [5] -0.116

SSR1 (UniProt P43307)
inactive: [1] 0.017 | [2] 0.008 | [3] -0.036 | [4] -0.054 | [5] -0.057

STAT5B (UniProt P51692)
inactive: [1] 0.004 | [2] 0.008 | [3] -0.01 | [4] 0.106 | [5] 0.053

SREBF2 (UniProt Q12772)
inactive: [1] -0.061 | [2] 0.039 | [3] 0.163 | [4] -0.086 | [5] -0.041

Two successive records already listed, for reference:
SPTAN1 (UniProt Q13813)
inactive: [1] -0.001 | [2] -0.002 | [3] 0.006 | [4] -0.032 | [5] -0.008

SRRM1 (UniProt Q8IYB3)
inactive: [1] 0.035 | [2] 0.017 | [3] -0.034 | [4] 0.055 | [5] 0.045

Following part:

ST7 (UniProt Q9NRC1)
inactive: [1] -0.069 | [2] -0.041 | [3] 0.041 | [4] -0.097 | [5] -0.007

SRSF4 (UniProt Q08170)
inactive: [1] -0.027 | [2] 0.023 | [3] 0.019 | [4] 0.016 | [5] 0.052

SPCS2 (UniProt Q15005)
inactive: [1] -0.018 | [2] -0.037 | [3] 0 | [4] -0.001 | [5] 0.087

SSU72 (UniProt Q9NP77)
inactive: [1] 0.014 | [2] 0.017 | [3] 0.078 | [4] 0.004 | [5] -0.17

STAT6 (UniProt P42226)
inactive: [1] -0.034 | [2] 0.03 | [3] 0.003 | [4] -0.015 | [5] -0.031

SSR4 (UniProt P51571)
inactive: [1] -0.027 | [2] 0.003 | [3] -0.004 | [4] -0.001 | [5] 0.015

SRGAP2 (UniProt O75044)
inactive: [1] 0.028 | [2] -0.016 | [3] -0.006 | [4] 0.01 | [5] 0.029

SRP9 (UniProt P49458)
inactive: [1] 0.066 | [2] 0 | [3] -0.029 | [4] 0.049 | [5] -0.019

SRP68 (UniProt Q9UHB9)
inactive: [1] 0.01 | [2] -0.008 | [3] 0.002 | [4] 0.029 | [5] 0.141

SRA1 (UniProt Q9HD15)
inactive: [1] -0.007 | [2] 0.022 | [3] -0.013 | [4] -0.088 | [5] -0.025

SRCAP (UniProt Q6ZRS2)
inactive: [1] 0.057 | [2] -0.04 | [3] 0.049 | [4] 0.004 | [5] 0.042

SPG11 (UniProt Q96JI7)
inactive: [1] -0.22 | [2] -0.253 | [3] 0.015 | [4] 0.067 | [5] 0.006

SPCS1, A0A5F9YFS9
inactive: [1] -0.062 | [2] 0.014 | [3] -0.001 | [4] 0.204 | [5] -0.001

SPTBN4 (UniProt Q9H254)
inactive: [1] -0.073 | [2] 0.037 | [3] -0.044 | [4] -0.063 | [5] -0.038

SPATA5L1 (UniProt Q9BVQ7)
inactive: [1] -0.019 | [2] 0.036 | [3] 0.006 | [4] -0.007 | [5] -0.039

SRR (UniProt Q9GZT4)
inactive: [1] 0.054 | [2] 0.096 | [3] 0.008 | [4] 0.187 | [5] -0.042

SRSF1 (UniProt Q07955)
inactive: [1] 0.01 | [2] 0.021 | [3] 0.006 | [4] 0.015 | [5] 0.049

SRRT (UniProt Q9BXP5)
inactive: [1] -0.003 | [2] 0.02 | [3] -0.002 | [4] 0.021 | [5] 0.068

STAT2 (UniProt P52630)
inactive: [1] -0.033 | [2] 0.005 | [3] 0.043 | [4] 0.033 | [5] 0.017

SRSF11 (UniProt Q05519)
inactive: [1] 0.005 | [2] 0.033 | [3] -0.005 | [4] 0.023 | [5] 0.038
